Experimental findings from PubChem BioAssay AID220 (DTP/NCI, 2004) are described below.

The list does not hold the whole screen: it gathers tests that were run many times, whatever their T/C, doses with no T/C, and many T/C values between a quarter and a half above the control. Further doses and runs are listed elsewhere. T/C gives the treated animals as a percentage of the vehicle group. Schedule codes are those of the source, taken here to give the interval after Q, in days (D) or hours (H), and the number of doses after X. Some T/C values carry the count of animals alive at the toxicity check (mostly the fifth day); where none is given, no animal had died by that day. Some doses have a count of surviving animals in place of a T/C: the source holds a T/C of zero for them, seemingly a mark for toxic or unscored doses. Survivors were counted at the toxicity check, usually on the fifth day, unless a day is given; later deaths do not show. Some entries were tested several times; their values stand side by side, smallest first.

The test system of the assay is CD8F1 mice, subcutaneous mammary adenocarcinoma, T/C%. Nature of the assay: NCI In Vivo Anticancer Drug Screen. Data for tumor model Mammary Adenocarcinoma CD8F1 (subcutaneous) in CD8F1. The following applies: higher T/C = larger tumour. The protocol: The antitumor activity of compounds was measured in mice bearing transplantable tumors. Survival or tumor size were measured and the results are expressed as the measurement made in the treated group (T) divided by the measurement made in the vehicle treated control group (C). The tumor model used in this assay is Mammary Adenocarcinoma CD8F1 (subcutaneous) in CD8F1

The mark [1] stands for this setting: T/C endpoint: median tumor weight change, dose: 250.0 mg/kg/injection, schedule: Q01DX001 (ip), vehicle: water.
The mark [2] stands for this setting: T/C endpoint: median tumor weight change, dose: 2000.0 mg/kg/injection, schedule: Q01DX001 (ip), vehicle: saline with Tween-80.
The mark [3] stands for this setting: T/C endpoint: median tumor weight change, dose: 500.0 mg/kg/injection, schedule: Q01DX001 (ip), vehicle: saline.
The mark [4] stands for this setting: T/C endpoint: median tumor weight change, dose: 1000.0 mg/kg/injection, schedule: Q01DX001 (ip), vehicle: saline.
The mark [5] stands for this setting: T/C endpoint: median tumor weight change, dose: 1000.0 mg/kg/injection, schedule: Q01DX001 (ip), vehicle: saline with Tween-80.
The mark [6] stands for this setting: T/C endpoint: median tumor weight change, dose: 2000.0 mg/kg/injection, schedule: Q01DX001 (ip), vehicle: Klucel (hydroxypropylcellulose) (HPC).

For the compound `O=NN(CCCl)C(=O)NCCO`, the survivor count was 0 of 9 on day 33 (T/C endpoint: median tumor weight change, dose: 31.3 mg/kg/injection, schedule: Q01DX001 (ip), vehicle: water); 5 of 10 on day 29 (T/C endpoint: median tumor weight change, dose: 32.0 mg/kg/injection, schedule: Q01DX001 (ip), vehicle: water); 0 of 10 on day 33 (T/C endpoint: median tumor weight change, dose: 62.5 mg/kg/injection, schedule: Q01DX001 (ip), vehicle: water); 0 of 10 on day 33 (T/C endpoint: median tumor weight change, dose: 125.0 mg/kg/injection, schedule: Q01DX001 (ip), vehicle: water); 0 of 10 on day 33 under setting [1].

Take `CCOC(=O)c1cn(C)c2c1C(O)=C(C(=O)OC)CC(=O)N2`: under setting [2], the survivor count is reported as 2 of 10 on day 29.

For the compound `CS(=O)(=O)OCCN(CCOS(C)(=O)=O)c1ccc(C=Nc2ccc(-c3csc(COc4ccccc4)n3)cc2)cc1`, the T/C (T/C endpoint: median tumor weight (est.), dose: 50.0 mg/kg/injection, schedule: Q07DX005 (ip), vehicle: Klucel (hydroxypropylcellulose) (HPC), evaluated on day 30) is 140 % of control. Besides, for the setting “T/C endpoint: median tumor weight (est.), dose: 200.0 mg/kg/injection, schedule: Q07DX005 (ip), vehicle: Klucel (hydroxypropylcellulose) (HPC)”, the survivor count is reported as 6 of 10 on day 30.

With `CCN(CC)CCN1C(=O)C2C3C=CC(C2C1=O)C1C2C(=O)N(CCN(CC)CC)C(=O)C2C31` (configuration not stated), the survivor count is, setting by setting: under setting [1], 3 of 10 on day 29; (T/C endpoint: median tumor weight change, dose: 500.0 mg/kg/injection, schedule: Q01DX001 (ip), vehicle: water) 0 of 10 on day 29.

Take `COc1cc(NS(C)(=O)=O)ccc1Nc1c2ccccc2nc2ccccc12`: the survivor count (T/C endpoint: median tumor weight (est.), dose: 128.0 mg/kg/injection, schedule: Q01DX001 (ip), vehicle: Klucel (hydroxypropylcellulose) (HPC)) was 0 of 10 on day 33.

For `CONc1ccn(C2OC(CO)C(O)C2O)c(=O)n1` (configuration not stated), the survivor count under setting [3] is 5 of 10 on day 35; the survivor count under setting [4] is listed as 0 of 10 on day 35; the survivor count (T/C endpoint: median tumor weight change, dose: 2000.0 mg/kg/injection, schedule: Q01DX001 (ip), vehicle: saline) is given as 0 of 10 on day 35; the survivor count (T/C endpoint: median tumor weight change, dose: 4000.0 mg/kg/injection, schedule: Q01DX001 (ip), vehicle: saline) is on record as 0 of 10 on day 35.

Regarding `N=c1nc2n(cc1F)[C@@H]1O[C@H](CO)[C@@H](O)[C@@H]1O2`, the T/C (T/C endpoint: median tumor weight (est.), dose: 25.0 mg/kg/injection, schedule: Q07DX005 (ip), vehicle: saline, evaluated on day 30) is 129 % of control.

In the case of `CN(C)C1C(=O)C(C(=O)NP(=O)(NCCCO)N(CCCl)CCCl)=C(O)C2(O)C(=O)C3=C(O)c4c(O)cccc4C(C)(O)C3CC12` (configuration not stated), the survivor count runs as follows: (T/C endpoint: median tumor weight change, dose: 500.0 mg/kg/injection, schedule: Q01DX001 (ip), vehicle: saline with Tween-80) 4 of 10 on day 29; under setting [5], 0 of 10 on day 29 and 5 of 10 on day 27.

On to `CC(=O)N(C)O`, for which the survivor count under setting [5] is 5 of 10 on day 32 and the survivor count under setting [2] is 0 of 10 on day 32.

On to `O=C1CC2(C(=O)N1CN1CCOCC1)c1ccccc1-c1ccccc12`, for which the survivor count under setting [6] is listed as 0 of 10 on day 38.

Regarding `NC(Cc1ccc(N(CCCl)Cc2ccccc2)cc1)C(=O)O` (configuration not stated), the survivor count runs as follows: (T/C endpoint: median tumor weight (est.), dose: 100.0 mg/kg/injection, schedule: Q07DX005 (ip), vehicle: distilled water + Tween-80) 2 of 10 on day 30; (T/C endpoint: median tumor weight (est.), dose: 200.0 mg/kg/injection, schedule: Q07DX005 (ip), vehicle: distilled water + Tween-80) 0 of 10 on day 30.

As for `COC1C(OC(=O)/C=C/C=C/C=C/C=C/C(=O)O)CCC2(CO2)C1C1(C)OC1CC=C(C)C` (configuration not stated), the survivor count (T/C endpoint: median tumor weight change, dose: 1000.0 mg/kg/injection, schedule: Q01DX001 (ip), vehicle: suspension in saline) is given as 0 of 10 on day 40.

Take `S=c1nc[nH]c2nc[nH]c12`: the T/C by setting is: (T/C endpoint: mean tumor weight (est.), dose: 67.5 mg/kg/injection, schedule: Q07DX005 (ip), vehicle: sodium bicarbonate, evaluated on day 63) 136 % of control [8 of 10 alive]; (T/C endpoint: mean tumor weight, dose: 35.0 mg/kg/injection, schedule: Q07DX005 (ip), vehicle: saline, evaluated on day 33) 136 % of control; (T/C endpoint: median tumor weight (est.), dose: 12.5 mg/kg/injection, schedule: Q07DX005 (ip), vehicle: Klucel (hydroxypropylcellulose) (HPC), evaluated on day 30) 131 % of control. In addition, the survivor count is, setting by setting: (T/C endpoint: mean tumor weight, dose: 135.0 mg/kg/injection, schedule: Q07DX006 (ip), vehicle: sodium bicarbonate) 2 of 10; (T/C endpoint: mean tumor weight, dose: 135.0 mg/kg/injection, schedule: Q07DX007 (ip), vehicle: saline) 6 of 10.

Regarding `C[C@H](N)C(=O)N[C@@H]1[C@H]2C(=C(O)C[C@@H](O)[C@@H]2O)C(=O)O[C@]1(C)C(Cl)Cl`, the survivor count (T/C endpoint: median tumor weight change, dose: 7.5 mg/kg/injection, schedule: Q01DX001 (ip), vehicle: Klucel (hydroxypropylcellulose) (HPC)) was 6 of 10 on day 28; the survivor count (T/C endpoint: median tumor weight change, dose: 15.0 mg/kg/injection, schedule: Q01DX001 (ip), vehicle: Klucel (hydroxypropylcellulose) (HPC)) is 0 of 10 on day 28; the survivor count (T/C endpoint: median tumor weight change, dose: 30.0 mg/kg/injection, schedule: Q01DX001 (ip), vehicle: Klucel (hydroxypropylcellulose) (HPC)) is given as 0 of 10 on day 28.

`COC(=O)CC(N)C(=O)O` (configuration not stated): under “T/C endpoint: median tumor weight change, dose: 62.5 mg/kg/injection, schedule: Q01DX001 (ip), vehicle: saline, evaluated on day 36”, the T/C was 149 % of control. The survivor count by setting is: under setting [3], 1 of 10 on day 36; under setting [4], 1 of 10 on day 36.

Consider `COC(=O)Nc1nc2ccc(SC)cc2c(=O)[nH]1`, for which the survivor count is 4 of 10 on day 35 (T/C endpoint: median tumor weight change, dose: 1000.0 mg/kg/injection, schedule: Q01DX001 (ip), vehicle: Klucel (hydroxypropylcellulose) (HPC)) and 0 of 10 on day 35 under setting [6].

Turning to `Cc1c2c(ccc3ccccc32)c[n+]2ccccc12`, the T/C reads like this: (T/C endpoint: median tumor weight (est.), dose: 6.25 mg/kg/injection, schedule: Q07DX005 (ip), vehicle: saline, evaluated on day 30) 140 % of control [8 of 10 alive on day 30]; (T/C endpoint: median tumor weight (est.), dose: 12.5 mg/kg/injection, schedule: Q07DX005 (ip), vehicle: saline, evaluated on day 30) 130 % of control [9 of 10 alive on day 30]. Besides, the survivor count (T/C endpoint: median tumor weight (est.), dose: 25.0 mg/kg/injection, schedule: Q07DX005 (ip), vehicle: saline) was 0 of 10 on day 30 and 5 of 10 on day 30; the survivor count (T/C endpoint: median tumor weight (est.), dose: 50.0 mg/kg/injection, schedule: Q07DX005 (ip), vehicle: saline) was 0 of 10 on day 30; the survivor count (T/C endpoint: median tumor weight (est.), dose: 100.0 mg/kg/injection, schedule: Q07DX005 (ip), vehicle: saline) was 0 of 10 on day 30.

In the case of `COC1=C(N)C(=O)c2nc(-c3nc(C(=O)O)c(C)c(-c4ccc(OC)c(OC)c4O)c3N)ccc2C1=O`, the survivor count by setting is: (T/C endpoint: median tumor weight (est.), dose: 0.8 mg/kg/injection, schedule: Q07DX005 (ip), vehicle: Klucel (hydroxypropylcellulose) (HPC)) 2 of 10; (T/C endpoint: median tumor weight change, dose: 2.0 mg/kg/injection, schedule: Q01DX001 (ip), vehicle: Klucel (hydroxypropylcellulose) (HPC)) 4 of 10 on day 29, 6 of 10 on day 30, 6 of 10 on day 34; (T/C endpoint: median tumor weight change, dose: 4.0 mg/kg/injection, schedule: Q01DX001 (ip), vehicle: Klucel (hydroxypropylcellulose) (HPC)) 0 of 10 on day 29, 0 of 10 on day 30, 0 of 10 on day 34.

For the compound `CS(=O)(=O)[O-].CS(=O)(=O)[O-].NC1CCCCC1N.[Pt+4]` (configuration not stated), the survivor count by setting is: (T/C endpoint: median tumor weight (est.), dose: 2.5 mg/kg/injection, schedule: Q07DX005 (ip), vehicle: dextrose) 5 of 10 on day 30; (T/C endpoint: median tumor weight (est.), dose: 5.0 mg/kg/injection, schedule: Q07DX005 (ip), vehicle: dextrose) 0 of 10 on day 30; (T/C endpoint: median tumor weight (est.), dose: 10.0 mg/kg/injection, schedule: Q07DX005 (ip), vehicle: dextrose) 0 of 10 on day 30 and 1 of 10 on day 30.

In the case of `S=c1[nH]cc2cnccn12`, the T/C (T/C endpoint: median tumor weight (est.), dose: 50.0 mg/kg/injection, schedule: Q07DX005 (ip), vehicle: saline with Tween-80, evaluated on day 30) is 125 % of control. Further, the survivor count (T/C endpoint: median tumor weight (est.), dose: 400.0 mg/kg/injection, schedule: Q07DX005 (ip), vehicle: saline with Tween-80) is 2 of 10 on day 30.

`CC[C@@]1(O)C(=O)OCc2c1cc1n(c2=O)Cc2cc3ccccc3nc2-1`: under “T/C endpoint: median tumor weight change, dose: 1.5 mg/kg/injection, schedule: Q01DX001 (ip), vehicle: saline with Tween-80, evaluated on day 31”, the T/C is 137 % of control.

For the compound `O=C1CN(Cc2ccc3c(c2)OCO3)NO1`, the T/C (T/C endpoint: median tumor weight change, dose: 31.25 mg/kg/injection, schedule: Q01DX001 (ip), vehicle: saline with Tween-80, evaluated on day 31) was 142 % of control.
